# The list does not hold the whole screen: it is rich in T/C values a quarter to a half above the control, in often repeated tests (any T/C) and in doses without a T/C. Other doses and runs of a compound stand elsewhere. T/C is the treated group as % of the vehicle group. Some doses have a count of surviving animals in place of a T/C: the source files T/C as zero there, which appears to mark a toxic dose or a test without result, not a measured value. Some survivor counts are full or nearly so, which does not show that the dose was tolerated: the source hardly ever lists a survival T/C far under the control, and the zero likely stands for such cases as well. Counts of survivors are from the toxicity check (mostly the fifth day) where no day follows; animals may have died later. Schedule codes are those of the source, read here as Q, the interval in days (D) or hours (H), X, the number of doses. Some molecules as drawn cover several salts, stereoisomers or complexes of the source; a dose is that of the sample tested. Some entries were tested several times; the values are given in rising order. Some schedules carry Z or #; the key to these is not given. Marks such as (2×) count equal records among those shown. Where survival is the endpoint, this PubChem deposit counts one and a half times the control or more as active, and values a quarter to a half above the control carry no call in these data; other NCI protocols may use other cut-offs.
# Test system: L1210 leukemia ip in BDF1 mice, survival T/C
# Assay: NCI In Vivo Anticancer Drug Screen. Data for tumor model L1210 Leukemia (intraperitoneal) in B6D2F1 (BDF1) mice
# Settings: T/C endpoint: mean survival time, higher T/C = longer survival
# [1] = dose: 100.0 mg/kg/injection, schedule: Q04DX002 (ip), vehicle: saline with Tween-80
# [2] = dose: 200.0 mg/kg/injection, schedule: Q04DX002 (ip), vehicle: saline with Tween-80
# [3] = dose: 400.0 mg/kg/injection, schedule: Q04DX002 (ip), vehicle: saline with Tween-80
# [4] = dose: 400.0 mg/kg/injection, schedule: Q04DX003 (ip), vehicle: saline with Tween-80
# [5] = dose: 200.0 mg/kg/injection, schedule: Q01DX009 (ip), vehicle: saline with Tween-80
# [6] = dose: 25.0 mg/kg/injection, schedule: Q01DX009 (ip), vehicle: Klucel (hydroxypropylcellulose) (HPC)
# [7] = dose: 100.0 mg/kg/injection, schedule: Q01DX009 (ip), vehicle: Klucel (hydroxypropylcellulose) (HPC)
# [8] = dose: 400.0 mg/kg/injection, schedule: Q04DX003 (ip), vehicle: Klucel (hydroxypropylcellulose) (HPC)
# [9] = dose: 200.0 mg/kg/injection, schedule: Q04DX003 (ip), vehicle: saline
# [10] = dose: 400.0 mg/kg/injection, schedule: Q04DX003 (ip), vehicle: saline
# [11] = dose: 400.0 mg/kg/injection, schedule: Q01DX001 (ip), vehicle: carboxymethylcellulose (CMC)
# [12] = dose: 400.0 mg/kg/injection, schedule: Q01DX001 (ip), vehicle: saline
# [13] = dose: 100.0 mg/kg/injection, schedule: Q01DX001 (ip), vehicle: saline
# [14] = dose: 200.0 mg/kg/injection, schedule: Q01DX001 (ip), vehicle: saline
# [15] = dose: 150.0 mg/kg/injection, schedule: Q01DX001 (ip), vehicle: saline
# [16] = dose: 300.0 mg/kg/injection, schedule: Q01DX001 (ip), vehicle: saline
compound,measurement,setting,value
CCN(CC)CCOCCOC(=O)C(CC)(CC)c1cccc2ccccc12,survivor count,[1],1 of 3
same,survivor count,[2],0 of 3
same,survivor count,[3],0 of 3
Nc1nccc(N2CCCCC2)n1,survivor count,"dose: 100.0 mg/kg/injection, schedule: Q04DX003 (ip), vehicle: saline with Tween-80",3 of 6
same,survivor count,"dose: 200.0 mg/kg/injection, schedule: Q04DX003 (ip), vehicle: saline with Tween-80",0 of 6
same,survivor count,[4],0 of 6
Cc1ccc(CCCC(CC(=O)O)C(=O)O)cc1 (stereo not drawn),survivor count,"dose: 100.0 mg/kg/injection, schedule: Q01DX001 (ip), vehicle: saline with Tween-80",1 of 3
same,survivor count,"dose: 200.0 mg/kg/injection, schedule: Q01DX001 (ip), vehicle: saline with Tween-80",1 of 3
same,survivor count,"dose: 400.0 mg/kg/injection, schedule: Q01DX001 (ip), vehicle: saline with Tween-80",0 of 3
O=C(/C=C/C=C/c1ccccc1)c1ccccc1O,survivor count,[5],6 of 6
CCCC(C)C(C#N)c1ccccc1 (stereo not drawn),survivor count,[6],5 of 6
same,survivor count,"dose: 75.0 mg/kg/injection, schedule: Q01DX009 (ip), vehicle: Klucel (hydroxypropylcellulose) (HPC)",3 of 6
same,survivor count,[7],2 of 6 and 3 of 6
same,survivor count,"dose: 100.0 mg/kg/injection, schedule: Q04DX003 (ip), vehicle: Klucel (hydroxypropylcellulose) (HPC)",6 of 6
same,survivor count,"dose: 200.0 mg/kg/injection, schedule: Q04DX003 (ip), vehicle: Klucel (hydroxypropylcellulose) (HPC)",2 of 6
same,survivor count,[8],0 of 6
CCCCNC(=O)OCC,T/C,"dose: 200.0 mg/kg/injection, schedule: Q01DX001 (ip), vehicle: carboxymethylcellulose (CMC)",127 % of control
CCCC(C)CCCNCCOC(=O)c1cccc(N)c1 (stereo not drawn),survivor count,"dose: 300.0 mg/kg/injection, schedule: Q01DX001 (ip), vehicle: other",2 of 6
CCOCC(C#N)C#N,survivor count,"dose: 25.0 mg/kg/injection, schedule: Q01DX009 (ip), vehicle: saline",0 of 6
same,survivor count,"dose: 100.0 mg/kg/injection, schedule: Q04DX003 (ip), vehicle: saline",0 of 6
same,survivor count,[9],0 of 6
same,survivor count,[10],0 of 6
Clc1ncnc2scnc12,survivor count,[11],0 of 4
CCCC(C)OP(=O)(OCC)OC(C)CC (stereo not drawn),survivor count,"dose: 400.0 mg/kg/injection, schedule: Q01DX009 (ip), vehicle: Klucel (hydroxypropylcellulose) (HPC)",0 of 6
COc1ccc(NC(=O)COc2cccc(Cl)c2)cc1S(=O)(=O)F,survivor count,"dose: 100.0 mg/kg/injection, schedule: Q04DX003 (ip), vehicle: gum acacia",6 of 6
COc1ccc(CCNC(=O)c2ccc(Cl)c(Cl)c2)cc1OC,survivor count,[2],3 of 3
same,survivor count,[3],3 of 3
O=[N+]([O-])c1ccc(O)c2ncccc12,survivor count,"dose: 200.0 mg/kg/injection, schedule: Q04DX002 (ip), vehicle: Klucel (hydroxypropylcellulose) (HPC)",1 of 3
same,survivor count,[11],0 of 4
CC(C)(C)S/C=C/C(N)=O,survivor count,[12],6 of 6
COc1cccc2c1C(=O)c1c(O)c3c(c(O)c1C2=O)CC(O)(C(C)=O)CC3OC1CC(N)C(OC2CC(N)C(O)C(C)O2)C(C)O1 (stereo not drawn),T/C,"dose: 2.5 mg/kg/injection, schedule: Q01DX009 (ip), vehicle: saline",138 % of control
same,T/C,"dose: 5.0 mg/kg/injection, schedule: Q01DX009 (ip), vehicle: saline",125 % of control
O=C(/C=C/C(=O)c1ccccc1)c1ccccc1,survivor count,"dose: 400.0 mg/kg/injection, schedule: Q04DX002 (ip), vehicle: Klucel (hydroxypropylcellulose) (HPC)",0 of 3
O=Cc1ccccc1B(O)O,survivor count,[8],3 of 6
CC(=O)SCC(C)SC(C)=O (stereo not drawn),survivor count,[1],0 of 3
same,survivor count,[2],0 of 3
same,survivor count,[3],0 of 3
COc1cc(CN(C)C2CCCCC2)cc(OC)c1OC,survivor count,[9],4 of 4
same,survivor count,[10],0 of 4
O=C(Nc1cccc(S(=O)(=O)F)c1)Oc1ccc([N+](=O)[O-])cc1,survivor count,"dose: 400.0 mg/kg/injection, schedule: Q01DX009 (ip), vehicle: saline with Tween-80",1 of 3
same,survivor count,[4],1 of 6
CCCC[S][Pb]([CH2]C)([CH2]C)[CH2]C,survivor count,"dose: 12.5 mg/kg/injection, schedule: Q01DX009 (sc), vehicle: olive oil, sesame oil, peanut oil",0 of 3
same,survivor count,"dose: 25.0 mg/kg/injection, schedule: Q01DX009 (sc), vehicle: olive oil, sesame oil, peanut oil",0 of 3
same,survivor count,"dose: 50.0 mg/kg/injection, schedule: Q04DX002 (ip), vehicle: saline with Tween-80",1 of 3
same,survivor count,[1],0 of 3
same,survivor count,[2],0 of 3
same,survivor count,[3],0 of 3
CCCNC(=S)NNC(=O)c1ccncc1,survivor count,[3],0 of 3
COC1(OC)C2CCC1(Cl)C(Cl)=C2Cl (stereo not drawn),survivor count,[4],5 of 6
O=C(Nc1ccc(Cl)cc1)O/N=C/c1ccccn1,survivor count,"dose: 100.0 mg/kg/injection, schedule: Q01DX009 (ip), vehicle: saline with Tween-80",6 of 6
same,survivor count,[5],6 of 6
COc1ccc2cc3[n+](cc2c1OC)CCc1cc2c(cc1-3)OCO2,survivor count,[6],1 of 6 and 6 of 6
same,survivor count,"dose: 25.0 mg/kg/injection, schedule: Q01DX Z (ip), vehicle: saline",3 of 7
same,survivor count,"dose: 40.0 mg/kg/injection, schedule: Q01DX001 (ip), vehicle: saline",1 of 4
same,survivor count,"dose: 50.0 mg/kg/injection, schedule: Q01DX009 (ip), vehicle: Klucel (hydroxypropylcellulose) (HPC)",0 of 6 (2×)
same,survivor count,"dose: 50.0 mg/kg/injection, schedule: Q01DX Z (ip), vehicle: saline",0 of 7
same,survivor count,"dose: 75.0 mg/kg/injection, schedule: Q01DX Z (ip), vehicle: saline",0 of 7
same,survivor count,"dose: 80.0 mg/kg/injection, schedule: Q01DX001 (ip), vehicle: saline",0 of 4
same,survivor count,[13],0 of 4
same,survivor count,[7],0 of 6
same,survivor count,[14],0 of 4
same,survivor count,"dose: 200.0 mg/kg/injection, schedule: Q01DX009 (ip), vehicle: Klucel (hydroxypropylcellulose) (HPC)",0 of 6
same,survivor count,[12],0 of 4
Cc1ccc(/C=C2/COC/C(=C\c3ccc(C)cc3)C2=O)cc1,survivor count,"dose: 50.0 mg/kg/injection, schedule: Q01DX001 (ip), vehicle: saline",6 of 6
same,survivor count,[13],6 of 6
same,survivor count,[14],6 of 6
same,survivor count,[12],5 of 6
N=C(N)N=Nc1ccc(NN=C(N)N)c2ccccc12,survivor count,"dose: 60.0 mg/kg/injection, schedule: Q01DX Z (ip), vehicle: saline",3 of 6
same,survivor count,"dose: 120.0 mg/kg/injection, schedule: Q01DX Z (ip), vehicle: saline",0 of 6
O=P(c1ccccc1)(c1ccccc1)C(Nc1ccc(Cl)cc1)c1ccco1 (stereo not drawn),survivor count,"dose: 100.0 mg/kg/injection, schedule: Q01DX009 (ip), vehicle: gum acacia",6 of 6
same,survivor count,"dose: 200.0 mg/kg/injection, schedule: Q01DX009 (ip), vehicle: gum acacia",6 of 6
Nc1ncccc1O,survivor count,"dose: 75.0 mg/kg/injection, schedule: Q01DX001 (ip), vehicle: saline",3 of 6
same,survivor count,[15],0 of 6
same,survivor count,[16],0 of 6
O=C(N[C@H](CO)[C@H](O)c1ccc([N+](=O)[O-])cc1)C(Cl)Cl,survivor count,"dose: 1080.0 mg/kg/injection, schedule: Q01DX001 (ip), vehicle: carboxymethylcellulose (CMC)",3 of 6
same,survivor count,"dose: 1620.0 mg/kg/injection, schedule: Q01DX001 (ip), vehicle: carboxymethylcellulose (CMC)",0 of 6
O=C(c1ccccc1)c1ccc[n+](Cc2c(Cl)cccc2Cl)c1,survivor count,[15],1 of 6
same,survivor count,[16],0 of 6

# From PubChem BioAssay AID248 (DTP/NCI, 2004)
